# According to patent publication US20120220553A1, “THE USE OF LPA FOR ENCOURAGING PREGNANCY, AND FERTILITY AGENT” (JCR Pharmaceuticals Co., Ltd., priority 2009, published 2012):
# Test: Quantitative determination of lysophosphatidic acids in embryo culture supernatant by GC-SIM
# Set-up: species or system human
# Conditions: pooled remaining culture supernatant of embryos of 45 patients; quantified against LPA-C18:1 standard; not detected in blank medium
# Procedure: Of the culture supernatant of embryos of 45 patients who had received SEET therapy, remaining portions unused in the SEET therapy, were pooled and subjected for analysis. The volume of the remaining supernatant pooled was about 2.6 mL.
# LPA contained in the culture was extracted by Bligh-Dyer method. Namely, to 2.59 mL of an embryo culture were added 0.5 mL of purified water, 2.5 mL of methanol, and 1.25 mL of chloroform, and the mixture was gently stirred for about 10 seconds, to which were further added 1.0 mL of 0.5 M HCl (prepared using saturated saline) and 2.5 mL of chloroform, and after stirring for one minute, the mixture was centrifuged (10 min, 3000 rpm, 4° C.) into separate layers, of which the lower, chloroform layer was collected. To the water layer was added 2.5 mL of chloroform, and after stirring and centrifugation in the above-described manner, the lower, chloroform layer was collected. These chloroform layers collected were combined and the solvent was removed under nitrogen gas flow. Unused BlastAssist System medium 2 was treated in the same manner as a blank.
# To the residue which remained after removal of the solvent were added pyridine and BSTFA [N,O-bis(trimethylsilyl)trifluoroacetamide solution containing 1% chlorotrimethylsilane], 25 pL each, to suspend the residue, and reaction was allowed at 70° C. for one hour. The reaction mixture was subjected to GC-SIM analysis and GC-MS(Scan).
# Separately, LPA-C18: 1 [oleyl-L-a-lysophosphatidic acid sodium salt (Sigma-Aldrich)] was dissolved in methanol at a concentration of 1 mg/mL to prepare a standard solution. The standard solution was diluted with unused BlastAssist System 2 (blank solution) as needed and extracted by Bligh-Dyer method, and then, after addition of pyridine and BSTFA, 25 μL each, to form a suspension, reaction was allowed at 70° C. for one hour, and then the reaction mixture was subjected to GC-SIM analysis and GS-MS(Scan) to determine the detection limit value and produce a standard curve for quantitative determination of LPA.
# GC-SIM analysis was carried out using JMS-700V (JEOL Ltd.), a mass spectroscope (MS apparatus), and HP-6890 (Agilent Technologies Inc.), a gas chromatography apparatus (GC apparatus). The GC column employed was SPB-1 (SUPELCO). The column was kept at 150° C. for 1 minute, and the temperature was raised to 300° C. linearly at the rate of 10° C./min, and was kept at 300° C. for 25 minutes. Helium, a carrier gas, was supplied to the column at a linear velocity of 30 cm/sec. The temperature of the injection port was set at 250° C., and 1 μL of a sample was injected (Splitless injection). The sample was ionized by the electron impact (EI) method under the condition in which the temperature of the ionization chamber was set at 250° C., the ionization voltage at 70 eV, and the ionization current at 100 pA. The detector of the MS apparatus was the double-focusing type (BE type) and the acceleration voltage was 10 kV.
# The concentration of each lysophosphatidic acid was measured based on the ratio of the area of the detected peak obtained by the analysis of the sample to that of the detected peak obtained by the analysis of the standard solution containing a known amount of LPA-C18:1. […]
row,SMILES,Concentration of lysophosphatidic acids contained in the sample [nmol/mL]
1,CCCCCCCCCCCCCCCC(=O)OC[C@@H](O)COP(=O)(O)O [LPA-C16:0],7.0
2,CCCCCC/C=C\CCCCCCCC(=O)OC[C@@H](O)COP(=O)(O)O [LPA-C16:1],0.2
3,CCCCCCCCCCCCCCCCCC(=O)OC[C@@H](O)COP(=O)(O)O [LPA-C18:0],1.0
4,"CCCCCCCC/C=C\CCCCCCCC(=O)OC[C@@H](O)COP(=O)(O)O [LPA-C18:1, oleyl-L-a-lysophosphatidic acid sodium salt]",2.6
5,CCCCC/C=C\C/C=C\CCCCCCCC(=O)OC[C@@H](O)COP(=O)(O)O [LPA-C18:2],2.9

# Where a name gives a salt, the structure may show the parent alone.
